The shares of active, inactive and inconclusive entries below differ from those in the screen. Potencies of inconclusive entries are doubtful fits and often do not repeat. Active and inactive are the calls of the source. Calls come from the whole dose curve; as a rule, active = well fitted curve in the direction sought with a large enough effect; inconclusive = small, poorly fitted or top-dose-only effect, or another doubt; inactive = no such curve, though single readings can be large; an effect the other way counts as inactive or inconclusive.
How the values were obtained:
[1] = Quantitative High-Throughput drug screen in 47 multiple myeloma cell lines against the NCATS MIPE library collection: ARP1_JJKsccF8 cell viability assay (AID 1918928; note: nearly all actives have a fitted effect of over 40% in size)
How it was run: (§1)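 Luminescence from CellTiter-Glo, taken after 5 min at room temperature, reports cellular ATP as viability. Cells (500 per well) had been treated 48 h at 37 °C with MIPE 4.0 compounds, scaled between DMSO and medium-only controls.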

[2] = Quantitative High-Throughput drug screen in 47 multiple myeloma cell lines against the NCATS MIPE library collection: ARD_JJKsccE7 cell viability assay (AID 1918929); conditions: ARD myeloma cell line viability, CellTiter-Glo, 48 h; viability: at 45.8 µM (top of the series)
How it was run: (§2)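 CellTiter-Glo ATP luminescence gave viability after 48 h compound treatment at 37C of 500 multiple myeloma cells per well. Normalisation used DMSO-only wells as 100% and media-only wells as 0% viability; primary qHTS of approved and investigational drugs.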

[3] = Quantitative High-Throughput drug screen in 47 multiple myeloma cell lines against the NCATS MIPE library collection: KMM1_JCRB cell viability assay (AID 1918960); conditions: KMM1 myeloma viability, CellTiter-Glo ATP luminescence, 48 h; viability (% of DMSO): at 45.8 µM (top of the series); note: nearly all actives have a fitted effect of over 30% in size;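 for viability (% of DMSO): 100% = DMSO-treated cells and 0% = medium-only wells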
How it was run: as §1

[4] = Quantitative High-Throughput drug screen in 47 multiple myeloma cell lines against the NCATS MIPE library collection: Karpas417_ECACC cell viability assay (AID 1918961); conditions: Karpas417 myeloma viability, CellTiter-Glo ATP luminescence, 48 h; viability (% of DMSO): at 45.8 µM (top of the series)
How it was run: (§3)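 Myeloma cells (500 per well) were exposed to MIPE 4.0 compounds by pin transfer and incubated 48 hours at 37C, 5% CO2. Viability was read as ATP by CellTiter-Glo luminescence, normalised to DMSO (100%) and media-only (0%) wells.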

[5] = Quantitative High-Throughput drug screen in 47 multiple myeloma cell lines against the NCATS MIPE library collection: JIM3_ECACC cell viability assay (AID 1918963; note: nearly all actives have a fitted effect of over 35% in size)
How it was run: (§4)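 CellTiter-Glo luminescence (ATP) after 48 h compound exposure, 37C/5% CO2; 500 cells/well; MIPE 4.0 approved/investigational drugs pinned in; DMSO = 100%, media only = 0% viability.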

[6] = Quantitative High-Throughput drug screen in 47 multiple myeloma cell lines against the NCATS MIPE library collection: JIM1_ECACC cell viability assay (AID 1918964); conditions: JIM1 myeloma viability, CellTiter-Glo ATP luminescence, 48 h; viability (% of DMSO): at 45.8 µM (top of the series)
How it was run: as §2

[7] = Quantitative High-Throughput drug screen in 47 multiple myeloma cell lines against the NCATS MIPE library collection: AMO1_DSMZ cell viability assay (AID 1918927; note: nearly all actives have a fitted effect of over 30% in size)
How it was run: as §2

[8] = Quantitative High-Throughput drug screen in 47 multiple myeloma cell lines against the NCATS MIPE library collection: Karpas620_DSMZ cell viability assay (AID 1918959); conditions: Karpas620 myeloma viability, CellTiter-Glo ATP luminescence, 48 h; viability (% of DMSO): at 45.8 µM (top of the series); note: nearly all actives have a fitted effect of over 30% in size
How it was run: as §4

[9] = Quantitative High-Throughput drug screen in 47 multiple myeloma cell lines against the NCATS MIPE library collection: KHM11_PLB cell viability assay (AID 1918962); conditions: KHM11 myeloma cell viability, CellTiter-Glo ATP luminescence, 48 h; viability, % of DMSO control: at 45.8 µM (top of the series); note: nearly all actives have a fitted effect of over 35% in size
How it was run: as §4

[10] = Quantitative High-Throughput drug screen in 47 multiple myeloma cell lines against the NCATS MIPE library collection: INA6_PLB cell viability assay (AID 1918965; note: nearly all actives have a fitted effect of over 55% in size); conditions: INA6 myeloma viability, CellTiter-Glo ATP luminescence, 48 h; viability (% of control): at 45.8 µM (top of the series)
How it was run: as §3

[11] = Quantitative High-Throughput drug screen in 47 multiple myeloma cell lines against the NCATS MIPE library collection: JJN3_DSMZ cell viability assay (AID 1918966; note: nearly all actives have a fitted effect of over 50% in size); conditions: JJN3 myeloma cells viability, CellTiter-Glo ATP, 48 h; viability, % of DMSO: at 45.8 µM (top of the series)
How it was run: as §2

[12] = Quantitative High-Throughput drug screen in 47 multiple myeloma cell lines against the NCATS MIPE library collection: H1112_PLB cell viability assay (AID 1918967; note: nearly all actives have a fitted effect of over 30% in size)
How it was run: as §2

[13] = Quantitative High-Throughput drug screen in 47 multiple myeloma cell lines against the NCATS MIPE library collection: Karpas25_ECACC cell viability assay (AID 1918968; note: nearly all actives have a fitted effect of over 35% in size); conditions: Karpas25 myeloma viability, CellTiter-Glo ATP, 48 h; viability (% of control): at 45.8 µM (top of the series)
How it was run: as §2

[14] = Quantitative High-Throughput drug screen in 47 multiple myeloma cell lines against the NCATS MIPE library collection: KMS27_JCRB cell viability assay (AID 1918970); conditions: KMS27 myeloma cells, CellTiter-Glo ATP viability, 48 h; viability (% of DMSO): at 45.8 µM (top of the series); note: nearly all actives have a fitted effect of over 30% in size
How it was run: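 Viability inhibition screen, 48 h compound exposure, luminescent ATP read-out.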

[15] = Quantitative High-Throughput drug screen in 47 multiple myeloma cell lines against the NCATS MIPE library collection: EJM_DSMZ cell viability assay (AID 1918926; note: nearly all actives have a fitted effect of over 30% in size)
How it was run: as §2
Potency is the fitted concentration of half-maximal effect.

Cc1ccc2nc(NCCN)c3ncc(C)n3c2c1
active: Potency [1] 8.33 µM | Potency [2] 9.35 µM | Potency [3] 7.43 µM | Potency [4] 8.33 µM | Potency [5] 8.33 µM | Potency [6] 3.32 µM

O=C(NNC(=O)c1ccc(CNS(=O)(=O)c2ccc(F)c(Cl)c2)cc1)c1ccccc1
inactive: Potency [7] | Potency [8] | Potency [3] | Potency [9] | Potency [11]
inconclusive: Potency [6] 11.8 µM [cytotoxic, full curve, poor fit] | Potency [10] 0.001 µM | Potency [12] 33.2 µM [cytotoxic, single point]

CCN(CC)C(=S)SSC(=S)N(CC)CC
active: Potency [11] 0.0166 µM | Potency [13] 0.001 µM
inconclusive: Potency [2] 0.0332 µM [cytotoxic, full curve, poor fit] | Potency [8] 0.0296 µM [cytotoxic, full curve, poor fit] | Potency [3] 0.0469 µM [cytotoxic, full curve, poor fit] | Potency [4] 0.0332 µM [cytotoxic, full curve, poor fit] | viability, % of DMSO control [9] 5.5% [cytotoxic] | Potency [6] 0.0372 µM [cytotoxic, full curve, poor fit] | Potency [14] 0.0372 µM [cytotoxic, full curve, poor fit]

O=C(Nc1ccc([N+](=O)[O-])cc1Cl)c1cc(Cl)ccc1O
active: Potency [1] 1.66 µM | Potency [8] 0.935 µM | Potency [6] 1.05 µM | Potency [11] 1.87 µM | Potency [14] 0.935 µM

O=c1cc(N2CCOCC2)oc2c(-c3ccccc3)cccc12
inactive: Potency [8] | Potency [14]
inconclusive: Potency [15] 14.8 µM [cytotoxic, partial curve, poor fit] | Potency [9] 2.35 µM [cytotoxic, full curve] | Potency [5] 5.9 µM [cytotoxic, partial curve] | Potency [6] 0.0066 µM [cytotoxic, full curve, poor fit] | Potency [10] 8.33 µM [cytotoxic, partial curve, poor fit] | Potency [12] 13.2 µM [cytotoxic, partial curve]

O=Nc1c(-c2c(O)[nH]c3cc(Br)ccc23)[nH]c2ccccc12
inconclusive: Potency [2] 5.26 µM [cytotoxic, partial curve, poor fit] | Potency [14] 10.5 µM [cytotoxic, single point]
active: Potency [1] 14.8 µM | Potency [6] 1.32 µM | Potency [10] 0.526 µM

CC(C)OC(=O)CCCC=CC[C@@H]1[C@H](C=C[C@@H](O)COc2cccc(C(F)(F)F)c2)[C@H](O)C[C@@H]1O
inconclusive: Potency [15] 18.7 µM [cytotoxic, partial curve] | Potency [4] 7.43 µM [rising, full curve] | Potency [11] 26.4 µM [cytotoxic, partial curve] | Potency [14] 0.235 µM [cytotoxic, full curve, poor fit]
inactive: Potency [3] | Potency [6]
active: Potency [9] 23.5 µM | Potency [12] 18.7 µM

O[C@@H](COc1cccc2ncccc12)CN1CCN(C2c3ccccc3[C@@H]3[C@H](c4ccccc42)C3(F)F)CC1 (stereo partly specified)
inconclusive: Potency [1] 18.7 µM [cytotoxic, partial curve] | Potency [10] 5.9 µM [cytotoxic, full curve, poor fit] | Potency [12] 11.8 µM [cytotoxic, partial curve] | Potency [13] 9.35 µM [cytotoxic, full curve] | Potency [14] 6.62 µM [cytotoxic, partial curve, poor fit]
active: Potency [9] 16.6 µM | Potency [11] 14.8 µM
inactive: Potency [8] | Potency [3]

c1ccc2c(Cc3c[nH]c4ccccc34)c[nH]c2c1
active: Potency [11] 26.4 µM | Potency [12] 1.05 µM | Potency [14] 7.43 µM
inconclusive: Potency [3] 9.35 µM [cytotoxic, single point] | Potency [4] 0.833 µM [cytotoxic, full curve, poor fit] | Potency [6] 7.43 µM [cytotoxic, partial curve, poor fit]

CC1Cc2ccccc2N1NC(=O)c1ccc(Cl)c(S(N)(=O)=O)c1 (stereo unspecified)
inactive: Potency [8] | Potency [5] | Potency [10] | Potency [13]
inconclusive: Potency [7] 0.001 µM [cytotoxic] | Potency [2] 0.0019 µM [cytotoxic, full curve, poor fit] | Potency [3] 0.118 µM [rising, full curve, poor fit] | Potency [9] 5.26 µM [rising, partial curve, poor fit] | Potency [11] 11.8 µM [cytotoxic, partial curve, poor fit]

NC1CCC(Nc2nc(Nc3ccc(C(=O)N4CCCCC4)cc3)c3ncn(-c4cccc(F)c4)c3n2)CC1 (stereo unspecified)
inactive: Potency [4]
inconclusive: Potency [9] 0.0037 µM [rising, full curve, poor fit] | Potency [6] 1.18 µM [cytotoxic, full curve, poor fit] | Potency [10] 0.372 µM [rising, full curve, poor fit] | Potency [11] 0.105 µM [rising, full curve, poor fit] | Potency [14] 0.0026 µM [rising, full curve, poor fit]

Cn1ccc2cc3c(cc21)CCN3C(=O)Nc1cccnc1
inconclusive: Potency [2] 37.2 µM [cytotoxic, single point] | Potency [3] 20.9 µM [cytotoxic, partial curve] | Potency [9] 37.2 µM [cytotoxic, single point] | Potency [5] 37.2 µM [cytotoxic, single point] | Potency [6] 33.2 µM [cytotoxic, single point] | Potency [11] 18.7 µM [cytotoxic, partial curve, poor fit] | Potency [14] 23.5 µM [cytotoxic, partial curve, poor fit]
inactive: Potency [1] | Potency [8]

CC1=C(CO)C(=O)O[C@@H]([C@@H](C)[C@H]2CC[C@H]3[C@@H]4C[C@H]5O[C@]56[C@@H](O)C=CC(=O)[C@]6(C)[C@@H]4CC[C@]23C)C1
inactive: Potency [2] | Potency [6]
inconclusive: Potency [7] 0.0526 µM [cytotoxic, full curve, poor fit] | Potency [4] 3.32 µM [rising, full curve] | Potency [14] 0.0187 µM [cytotoxic, full curve, poor fit]
active: Potency [5] 0.209 µM | Potency [11] 0.662 µM

CNCc1ccc(-c2[nH]c3cc(F)cc4c3c2CCNC4=O)cc1
active: Potency [7] 8.33 µM | Potency [2] 5.9 µM
inactive: Potency [1] | Potency [11]
inconclusive: Potency [3] 33.2 µM [cytotoxic, single point] | Potency [4] 23.5 µM [rising, partial curve, poor fit] | Potency [9] 37.2 µM [cytotoxic, single point] | Potency [5] 29.6 µM [cytotoxic, partial curve, poor fit] | Potency [6] 11.8 µM [cytotoxic, single point] | Potency [14] 0.001 µM [cytotoxic]

O=C(c1ccccc1)c1ccc2n1CCC2C(=O)O (stereo unspecified)
inactive: Potency [3] | Potency [4] | Potency [14]
inconclusive: Potency [7] 3.72 µM [cytotoxic, partial curve, poor fit] | Potency [1] 0.0037 µM [rising, full curve, poor fit] | Potency [11] 37.2 µM [cytotoxic, single point]
active: Potency [10] 10.5 µM | Potency [13] 2.96 µM

O=C1c2c(O)ccc(O)c2C(=O)c2c(NCCNCCO)ccc(NCCNCCO)c21
active: Potency [15] 0.833 µM | Potency [8] 5.26 µM | Potency [4] 16.6 µM | Potency [9] 0.833 µM | Potency [6] 1.66 µM | Potency [12] 0.332 µM | Potency [14] 0.59 µM

CCCn1c(=O)c2[nH]c(C34CC5CC3C[C@@H](C5)C4)nc2n(CCC)c1=O
inactive: Potency [2] | Potency [5] | Potency [10] | Potency [12]
inconclusive: Potency [3] 0.0019 µM [rising, full curve, poor fit] | Potency [9] 0.0372 µM [rising, full curve, poor fit] | Potency [6] 0.118 µM [cytotoxic, full curve, poor fit] | Potency [14] 0.264 µM [cytotoxic, full curve, poor fit]

Sorted by count of non-hydrogen atoms (smallest number first): 3 of the compounds above
O=C(c1ccccc1)c1ccc2n1CCC2C(=O)O (stereo unspecified)
inactive: Potency [3] | Potency [4] | Potency [14]
inconclusive: Potency [7] 3.72 µM [cytotoxic, partial curve, poor fit] | Potency [1] 0.0037 µM [rising, full curve, poor fit] | Potency [11] 37.2 µM [cytotoxic, single point]
active: Potency [10] 10.5 µM | Potency [13] 2.96 µM

CCCn1c(=O)c2[nH]c(C34CC5CC3C[C@@H](C5)C4)nc2n(CCC)c1=O
inactive: Potency [2] | Potency [5] | Potency [10] | Potency [12]
inconclusive: Potency [3] 0.0019 µM [rising, full curve, poor fit] | Potency [9] 0.0372 µM [rising, full curve, poor fit] | Potency [6] 0.118 µM [cytotoxic, full curve, poor fit] | Potency [14] 0.264 µM [cytotoxic, full curve, poor fit]

CC1=C(CO)C(=O)O[C@@H]([C@@H](C)[C@H]2CC[C@H]3[C@@H]4C[C@H]5O[C@]56[C@@H](O)C=CC(=O)[C@]6(C)[C@@H]4CC[C@]23C)C1
inactive: Potency [2] | Potency [6]
inconclusive: Potency [7] 0.0526 µM [cytotoxic, full curve, poor fit] | Potency [4] 3.32 µM [rising, full curve] | Potency [14] 0.0187 µM [cytotoxic, full curve, poor fit]
active: Potency [5] 0.209 µM | Potency [11] 0.662 µM

Next entries

COc1ccc(C=CC(=O)Nc2ccccc2C(=O)O)cc1OC
inconclusive: Potency [7] 0.0059 µM [cytotoxic, full curve, poor fit] | Potency [1] 26.4 µM [cytotoxic, single point] | Potency [4] 13.2 µM [rising, partial curve, poor fit] | Potency [11] 0.526 µM [cytotoxic, full curve, poor fit]
inactive: Potency [3] | Potency [9] | Potency [6] | Potency [14]

Source: PubChem BioAssay (NCATS)
